Assay results as given in PubChem BioAssay AID493014 (National Center for Advancing Translational Sciences (NCATS), 2011).
The other results are listed elsewhere or left out. The main result of the screen is listed elsewhere. These columns were measured beside it and carry no call. The list favours compounds with an active or inconclusive main result. The note in brackets gives the kind of curve behind each potency; many fits are weak.

Assay: qHTS Assay to Find Inhibitors of Chronic Active B-Cell Receptor Signaling
Settings: ABC-DLBCL IkBa-CBG/CBR reporter, luminescence ratio (green luciferase fused to IkBa over red control in TMD8 lymphoma cells), 4 h
Method in brief: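 Compounds up to 46 uM were incubated four hours with TMD8 cells whose green CBG68 luciferase is fused to IkappaBalpha; red CBR luminescence normalised the signal, and concentration-effect curves were fitted to fusion, red and ratio data.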

[1] = measured here: IkBa-CBG green luminescence
[2] = measured here: CBR red luminescence, cell number

Row | Structure (SMILES) | AC50 [1] | AC50 [2]
1 | O=C(CCSc1ccccc1)NCCSCc1ccccc1 | 20.6 µM [rising, partial curve, poor fit] | 
2 | Cc1ccccc1N1CCN(C2=NC(=O)/C(=C\c3cccs3)S2)CC1 | 20.6 µM [falling, partial curve, poor fit] | 1.64 µM [falling, full curve]
3 | Cc1cccc(C)c1NC(=O)CN(C)C(=O)c1ccc(-c2cccc(C(F)(F)F)c2)o1 |  | 3.26 µM [rising, single point]
4 | CCOC(=O)N1CCC(NC(=O)c2ccc3c(c2)sc2nc(-c4cccc(OC)c4)cn23)CC1 | 2.59 µM [rising, full curve] | 2.91 µM [falling, full curve, poor fit]
5 | CCCn1c(=O)c(Br)cn(-c2ccccc2C)c1=O |  | 6.31 µM [rising, partial curve, poor fit]
6 | Cc1ccc(-c2csc(NC(=O)c3ccc(S(=O)(=O)N4CCc5ccccc54)cc3)n2)cc1 |  | 20.6 µM [falling, single point]
7 | CCc1ccc(-n2nnnc2SCC(=O)Nc2ccc(NC(C)=O)cc2)cc1 | 11.2 µM [falling, partial curve, poor fit] | 2.24 µM [rising, partial curve]
8 | CC1(C)Oc2ccc(NC(=O)c3ccco3)cc2O1 |  | 22.4 µM [rising, single point]
9 | CN(C)C=Nc1ncc2c3ccccc3n(CCN(C)C)c2c1C#N |  | 17.8 µM [falling, single point]
10 | Cc1ccc2nc(Cl)c(/C=N/Nc3nc(C)cc(C)n3)c(=O)n2c1 |  | 13 µM [falling, partial curve, poor fit]
11 | Cc1ccc(NC(=O)c2ccco2)c(NC(=O)c2ccccc2C)c1 |  | 11.2 µM [rising, partial curve]
12 | Cc1ccc(/C=C/c2nc3ccccc3s2)s1 |  | 25.9 µM [falling, partial curve]
13 | COc1cc(C2Nc3ccc4ncccc4c3C3=C2C(=O)CCC3)cc(OC)c1O (stereo unspecified) | 20.6 µM [falling, single point] | 
14 | C/C(CC(=O)Nc1ccc2c(c1)OCCO2)=N\NC(=O)C(=O)Nc1ccccc1C |  | 14.1 µM [falling, single point]
15 | COc1ccc(N=Nc2cc(C)ccc2O)cc1 |  | 3.55 µM [rising, full curve, poor fit]
16 | CC(C)(C)NC(=O)c1ccc(Sc2ccccc2)c([N+](=O)[O-])c1 |  | 8.2 µM [rising, partial curve]
17 | CC(C)(C)NC(=O)C(c1ccc(F)cc1)N(Cc1ccccc1Cl)C(=O)c1ccn[nH]1 (stereo unspecified) |  | 14.1 µM [falling, partial curve]
18 | CC1(C)Cc2ccccc2C(CSc2ccccc2C(=O)O)=N1 |  | 11.2 µM [rising, partial curve, poor fit]
19 | NNC(=O)c1cccc(O)c1 |  | 8.2 µM [falling, partial curve]
20 | COc1ccccc1N(CC(=O)NC1CC2CCC1C2)S(=O)(=O)c1ccc(C)cc1 (stereo unspecified) |  | 20 µM [falling, single point]
21 | CC1=Nc2cc(C(=O)O)ccc2Sc2c(C)ccc(C)c21 |  | 25.1 µM [falling, single point]

Quoted at random: 4 records from the list.
Row | Structure (SMILES) | AC50 [1] | AC50 [2]
2 | Cc1ccccc1N1CCN(C2=NC(=O)/C(=C\c3cccs3)S2)CC1 | 20.6 µM [falling, partial curve, poor fit] | 1.64 µM [falling, full curve]
8 | CC1(C)Oc2ccc(NC(=O)c3ccco3)cc2O1 |  | 22.4 µM [rising, single point]
5 | CCCn1c(=O)c(Br)cn(-c2ccccc2C)c1=O |  | 6.31 µM [rising, partial curve, poor fit]
15 | COc1ccc(N=Nc2cc(C)ccc2O)cc1 |  | 3.55 µM [rising, full curve, poor fit]

(continued)

Row | Structure (SMILES) | AC50 [1] | AC50 [2]
22 | C/C(CC(=O)N1CCN(C=O)CC1)=N\NC(=O)c1ccc(Cl)cc1 |  | 25.1 µM [falling, single point]
23 | C#CCOCCOCCOCCNc1nc(N2CCN(C(=O)CCCCCCCCCCNC(=O)[C@H]([C@@H](C)CC)n3cc(CCCCCN)nn3)CC2)nc(N2CCN(C(=O)CCCCCCCCCCNC(=O)[C@H]([C@@H](C)CC)n3cc(CCCCN=C(N)N)nn3)CC2)n1 |  | 29.1 µM [rising, single point]
24 | CCOC(=O)/C(C(C)=O)=C1/OC(=O)c2ccccc21 |  | 6.51 µM [falling, single point]
25 | CC(=O)NC(=S)Nc1ccc(-c2nc3ccc(C)cc3s2)cc1 |  | 0.501 µM [rising, full curve, poor fit]
26 | CCC(=NNC(=O)c1ccc2c(c1)nc(C)n2CC)c1cc(F)ccc1O |  | 0.0517 µM [rising, full curve, poor fit]
27 | O=C(NCC1CC1)c1cccc2c1C(=O)c1ccc(N3CCCC3)cc1S2(=O)=O |  | 0.58 µM [rising, partial curve, poor fit]
28 | O=C(N/N=C/c1ccc(OC2CSC2)cc1)c1ccccc1 |  | 2.51 µM [falling, partial curve]
29 | CC(C)OC(=O)CSc1nnc(SCc2cccc3ccccc23)s1 |  | 18.4 µM [falling, partial curve, poor fit]
30 | Cc1ccc(-n2[nH]c(C)c(/C=N/c3ccccn3)c2=O)cc1 |  | 14.1 µM [falling, single point]
31 | O=C(CC(Cc1ccccc1)C(=O)O)Nc1ccc(Cl)c(Cl)c1 (stereo unspecified) |  | 35.5 µM [rising, single point]
32 | O=C(Cc1c[nH]c2ccccc12)NCc1cccs1 |  | 25.9 µM [falling, single point]
33 | COc1ccc(C2C(C(N)=O)=C(C)Nc3nc(-c4ccccc4OC)nn32)cc1OC (stereo unspecified) |  | 11.2 µM [falling, partial curve]
34 | COC(=O)c1ccccc1NC(=O)c1ccccc1N(C)S(C)(=O)=O |  | 6.51 µM [rising, single point]
35 | COc1ccc(/C=C2/C(=O)N(c3nc4ccccc4s3)N=C2CSc2ccc(Cl)cc2)cc1 |  | 25.9 µM [rising, single point]
36 | COC(=O)c1c(-c2ccc(C)cc2)csc1NC(=O)Cc1ccc(OC)c(OC)c1 |  | 25.9 µM [falling, partial curve, poor fit]
37 | Cn1cccc/c1=N\c1cccc[n+]1C |  | 35.5 µM [falling, single point]
38 | CN1CCN(C(=O)CCCN2C(=O)/C(=C/c3ccc(Cl)cc3)SC2=S)CC1 |  | 8.2 µM [falling, partial curve]
39 | CCN1CCc2c(OCc3ccccc3)cccc2C1=O |  | 0.2 µM [falling, full curve, poor fit]
40 | Cc1ccc(/C=C(\C#N)C(=O)NC(C)C)o1 |  | 15.8 µM [rising, partial curve, poor fit]
41 | CCC(/C=C1\Sc2ccc(OC)cc2N1CC)=C\c1sc2ccc(OC)cc2[n+]1CCCS(=O)(=O)[O-] | 11.2 µM [rising, partial curve, poor fit] | 0.501 µM [rising, full curve, poor fit]
42 | COc1ccc(/C=C2\SC(=O)N(CCC(=O)NC3CCS(=O)(=O)C3)C2=O)cc1 (stereo unspecified) |  | 0.631 µM [falling, full curve, poor fit]

Row | Structure (SMILES) | AC50 [1] | AC50 [2]
43 | O=C1[C@@H]2Cc3c([nH]c4ccccc34)C(c3cccc(Br)c3)N2C(=O)CN1C1CCN(Cc2ccccc2)CC1 (stereo partly specified) |  | 2.82 µM [falling, full curve, poor fit]
44 | COc1ccc(N2Cc3cccc(C(=O)O)c3C2=O)cc1 |  | 1.84 µM [rising, partial curve, poor fit]
45 | CC(=O)c1cccc(NC(=O)C2CCN(C(=O)c3cccs3)CC2)c1 |  | 11.2 µM [rising, single point]
46 | Cc1ccc2nc(-c3cccc(Br)c3)cc(C(=O)NCC3CCCO3)c2c1 (stereo unspecified) |  | 15.8 µM [rising, single point]
47 | C[C@H]1C(=O)N(c2ccccc2)[C@@H]1c1ccccc1 |  | 0.231 µM [rising, full curve, poor fit]
48 | COc1ccc(-c2cc(C(F)(F)F)nc(SCC(=O)N(C)Cc3cn(C)nc3C)n2)cc1OC |  | 23.1 µM [rising, partial curve]
49 | CSc1nc(-c2ccccc2)nc(N2CCN(C)CC2)c1C(C)=O |  | 35.5 µM [falling, single point]
50 | CC(=O)N[C@@H](Cc1c[nH]c2ccccc12)C(=O)OCC(=O)Nc1ccc(Cl)c(S(=O)(=O)N(C)C)c1 |  | 1.26 µM [rising, full curve]
51 | c1ccc(-c2noc(CSc3nc4ccccc4o3)n2)cc1 |  | 7.94 µM [rising, partial curve]
52 | Cn1c(=O)n(CCOc2ccc(Cl)cc2Cl)c2ccccc21 |  | 14.6 µM [rising, partial curve, poor fit]
53 | Cc1ccc(Cl)cc1-n1ncc2c(NCCc3ccccc3)ncnc21 | 3.55 µM [rising, partial curve, poor fit] | 6.31 µM [falling, single point]
54 | Cc1cccc(CSc2cn(CC(=O)N3CCOCC3)c3ccccc23)c1 |  | 13 µM [falling, single point]
55 | c1ccc(CSC2=NNC(c3ccccn3)S2)cc1 (stereo unspecified) |  | 4.47 µM [rising, full curve, poor fit]
56 | CC(C)Cc1ccc(/C=C/C(=O)N2CCOCC2)cc1 |  | 3.55 µM [rising, full curve, poor fit]
57 | COC(=O)CC1C(=O)NCCN1C(=O)CSc1nnnn1-c1ccc(Cl)cc1 (stereo unspecified) |  | 35.5 µM [rising, single point]
58 | c1ccc2[nH]c(-c3nc4ccccc4[nH]3)nc2c1 |  | 5.17 µM [falling, full curve, poor fit]
59 | Nc1nc(-c2ccc3ccccc3c2)cs1 |  | 0.891 µM [rising, full curve, poor fit]
60 | CCOc1ccc2nc(NC(NC(C)=O)(C(=O)OC)C(F)(F)F)sc2c1 (stereo unspecified) |  | 10 µM [rising, partial curve]
61 | CCOC(=O)c1c(-c2ccccc2)csc1NC(=O)CCN1CCOCC1 |  | 29.1 µM [falling, single point]
